For assay [1], the target named is BRD3 (mouse (endogenous in mouse cortical neurons)) (UniProt Q8K2F0). Kind of assay: co-IP; endogenous proteins; nuclear extracts of unstimulated (1 uM TTX overnight) or KCl-depolarised (55 mM, 30 min) mouse cortical neurons; extracted at 600 mM NaCl, diluted to 100 mM NaCl; antibody overnight at 4 C, Protein A/G PLUS Agarose; immunoblot. A general note: A western blot detects proteins with antibodies after separation by electrophoresis.

Amino acid sequences for entries named in this document (tags omitted).
UniProt Q8K2F0: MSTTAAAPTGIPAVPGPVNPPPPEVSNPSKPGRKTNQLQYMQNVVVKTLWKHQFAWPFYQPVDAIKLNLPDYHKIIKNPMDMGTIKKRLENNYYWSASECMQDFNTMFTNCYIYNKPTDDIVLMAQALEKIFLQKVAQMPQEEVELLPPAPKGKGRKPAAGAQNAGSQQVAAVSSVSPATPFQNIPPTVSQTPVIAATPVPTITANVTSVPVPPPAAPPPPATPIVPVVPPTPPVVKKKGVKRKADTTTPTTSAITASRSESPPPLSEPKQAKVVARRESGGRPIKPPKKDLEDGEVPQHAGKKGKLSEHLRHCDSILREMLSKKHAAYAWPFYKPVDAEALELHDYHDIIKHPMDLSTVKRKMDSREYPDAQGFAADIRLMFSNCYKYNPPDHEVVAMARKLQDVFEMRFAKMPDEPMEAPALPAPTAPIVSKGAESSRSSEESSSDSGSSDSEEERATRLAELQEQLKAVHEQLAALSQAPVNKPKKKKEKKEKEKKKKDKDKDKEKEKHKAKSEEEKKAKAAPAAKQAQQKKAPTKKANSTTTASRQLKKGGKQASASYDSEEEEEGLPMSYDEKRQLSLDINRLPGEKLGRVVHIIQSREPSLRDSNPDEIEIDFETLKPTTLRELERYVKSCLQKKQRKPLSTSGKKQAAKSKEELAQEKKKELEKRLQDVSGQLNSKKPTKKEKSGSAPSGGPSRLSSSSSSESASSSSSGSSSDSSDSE
UniProt Q7JJ13: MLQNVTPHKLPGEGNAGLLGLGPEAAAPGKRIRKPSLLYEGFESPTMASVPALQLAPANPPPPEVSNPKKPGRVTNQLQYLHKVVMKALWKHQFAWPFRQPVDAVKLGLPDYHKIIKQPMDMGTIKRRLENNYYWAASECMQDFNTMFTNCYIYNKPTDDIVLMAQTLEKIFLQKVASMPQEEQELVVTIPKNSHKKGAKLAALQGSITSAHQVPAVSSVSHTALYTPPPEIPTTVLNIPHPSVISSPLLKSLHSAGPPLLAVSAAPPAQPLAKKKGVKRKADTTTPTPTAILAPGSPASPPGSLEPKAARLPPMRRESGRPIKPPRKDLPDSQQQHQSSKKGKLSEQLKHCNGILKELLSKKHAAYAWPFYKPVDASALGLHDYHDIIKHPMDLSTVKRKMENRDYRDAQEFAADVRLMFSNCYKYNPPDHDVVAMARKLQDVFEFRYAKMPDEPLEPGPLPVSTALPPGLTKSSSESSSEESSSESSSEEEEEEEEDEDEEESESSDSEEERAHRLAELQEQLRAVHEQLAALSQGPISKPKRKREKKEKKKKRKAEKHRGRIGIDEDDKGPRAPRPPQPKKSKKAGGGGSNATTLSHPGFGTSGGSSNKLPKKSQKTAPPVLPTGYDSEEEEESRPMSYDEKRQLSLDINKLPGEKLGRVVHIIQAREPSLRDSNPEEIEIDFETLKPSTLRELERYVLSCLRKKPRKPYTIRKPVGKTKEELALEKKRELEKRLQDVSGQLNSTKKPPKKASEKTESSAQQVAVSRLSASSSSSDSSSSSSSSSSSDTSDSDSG

Assay [2] addresses BRD2 (mouse (endogenous in mouse cortical neurons)) (UniProt Q7JJ13). The assay is described as above.

No constants are given. Whether binding was seen depends on the method and setting. In cells and extracts the contact can be indirect. Some entries that bind do so weakly or less than the wild type.

In the case of BRD2 (from UniProt Q7JJ13 1-798), the binding result in assay [1] is reported as “binds”.
For BRD3 (from UniProt Q8K2F0 1-726), in assay [2], the binding result is listed as “binds”.

(Values after publication PMC8133748.)
